This passage reports AC50 results from PubChem BioAssay AID493014 (National Center for Advancing Translational Sciences (NCATS), 2011).

A short description of this assay: qHTS Assay to Find Inhibitors of Chronic Active B-Cell Receptor Signaling. Conditions: ABC-DLBCL IkBa-CBG/CBR reporter, luminescence ratio (green luciferase fused to IkBa over red control in TMD8 lymphoma cells), 4 h. In a few lines:
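Compounds up to 46 uM were incubated four hours with TMD8 cells whose green CBG68 luciferase is fused to IkappaBalpha; red CBR luminescence normalised the signal, and concentration-effect curves were fitted to fusion, red and ratio data.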

The mark [1] stands for this setting: measured here: CBR red luminescence, cell number.
[2] abbreviates: measured here: IkBa-CBG green luminescence.

The other results are listed elsewhere or left out. These are further read-outs of the screen, such as a control signal, another cell line or another target. No call is given for them. Compounds called inactive in the main read-out are mostly missing here. Potencies come from curve fits of mixed quality, noted in brackets.

Regarding `Cc1ccc(N2NC(=O)/C(=C/c3ccc(-c4ccc(Cl)c(C(=O)O)c4)o3)C2=O)cc1`, under setting [1], the AC50 (as a rule, the midpoint of the concentration-response curve, whichever way the signal moves) was 10 µM [falling, partial curve, poor fit].
On the same count and under the same terms, the figure for `NNC(=O)c1ccc(NS(=O)(=O)c2ccc(Br)cc2)cc1` is 14.1 µM [falling, partial curve]; for `O=C(Nc1cccc2cccnc12)c1ccc(Br)o1` it is 7.31 µM [rising, partial curve, poor fit]; for `O=C(NCCOc1ccc(F)cc1)c1ccccc1SCc1ccccc1` it is 29.1 µM [falling, single point].
The same measure, in the same setting: the figure for `COc1ccc(C(C)n2c(C)c3c(C)nnc(C)c3c2C)cc1` (configuration not stated) is 35.5 µM [falling, single point].
Same read-out and setting: the figure for `Cc1ccc2nc(Nc3ccc(Cl)cc3)c3nncn3c2c1` is 0.282 µM [rising, full curve, poor fit].
Consider `CC(C)Cc1nnc(NC(=O)c2ccc([N+](=O)[O-])cc2)s1`, for which, under setting [1], the AC50 is 3.98 µM [falling, partial curve].
Still for that read-out and setting: the figure for `Cc1nn(-c2ccccc2)c2sc(C(=O)n3cccn3)cc12` is 0.0891 µM [falling, full curve, poor fit].
For `C=CCOC(=O)c1cn(CC)c2nc(C)ccc2c1=O`, the AC50 under setting [1] was 5.62 µM [falling, full curve, poor fit] and the AC50 under setting [2] is 12.6 µM [rising, partial curve, poor fit].
Consider `O=C(Nc1nc2ccccc2s1)C1=NN(c2ccccc2)C(=O)CC1`, for which, under setting [1], the AC50 was 6.51 µM [falling, partial curve].
In the case of `CCSc1nc2c([nH]c3ccccc32)c(=O)n1C`, the AC50 under setting [1] is 0.411 µM [falling, full curve].
Still for that read-out and setting: the figure for `COc1ccc(N2CCN(C(=O)c3cc(C4CC4)nn3-c3ccccc3)CC2)cc1` is 29.1 µM [rising, single point].
On the same count and under the same terms, the figure for `CCOc1ccc(C(=O)Nc2ccccc2N2CCOCC2)cc1` is 35.5 µM [rising, single point]; for `CCc1nc2c(c(=O)c3ccccc3n2C)c(=O)n1CCc1ccc(OC)cc1` it is 2.59 µM [falling, full curve]; for `Cc1nc(NC(=O)COc2ccccc2)sc1C(=O)Nc1cccc(Cl)c1` it is 8.91 µM [falling, partial curve, poor fit].
Still for that read-out and setting: the figure for `O=C(CCN1CCc2ccccc2C1)Nc1ccccc1` is 15.8 µM [falling, single point]; for `CCOc1ccccc1NC(=O)c1ccc(S(=O)(=O)N(C)C)cc1` it is 20.6 µM [falling, partial curve, poor fit]; for `CN1CCN(c2ccccc2/C=C2/C(=O)Nc3ccccc32)CC1` it is 10 µM [falling, single point].
In the case of `C=CCNc1nc(Nc2ccc(Cl)cc2)nc(OC)n1`, the AC50 under setting [1] is 3.98 µM [rising, single point].
With `CC(/C=N\NC(=O)c1ccc2c(c1)OCO2)c1ccccc1` (configuration not stated), the AC50 under setting [1] is 3.55 µM [falling, partial curve].
Same read-out and setting: the figure for `COc1ccc(Cn2cccc(NC(=O)Nc3cccc(OC)c3)c2=O)cc1` is 7.08 µM [falling, full curve]; for `O=C(COC(=O)c1n[nH]c2ccccc12)NC(=O)NC1CCCC1` it is 23.1 µM [falling, partial curve, poor fit].
On the same count and under the same terms, the figure for `CCSc1nnc(-c2cnn(-c3ccccc3)c2-n2cccc2)n1C` is 0.92 µM [falling, full curve, poor fit].
On to `O=C(CCc1nnc(Cc2ccc3c(c2)OCO3)o1)NCc1nc2ccccc2s1`, for which, under setting [1], the AC50 is 35.5 µM [falling, single point].
Still for that read-out and setting: the figure for `CCOC(=O)c1[nH]c(C)c(/C(O)=C2\C(=O)C(=O)N(CCN(C)C)C2c2ccncc2)c1C` (configuration not stated) is 0.103 µM [falling, partial curve, poor fit]; for `NNC(=O)CN1C(c2ccc(Br)cc2)=Nc2ccc(Br)cc2C1c1ccccc1` (configuration not stated) it is 4.11 µM [falling, partial curve, poor fit]; for `Cc1c(/C=N/NC(=O)c2cc(Br)ccc2O)c(=O)n(C)c(=O)n1C` it is 0.447 µM [falling, full curve, poor fit].
Still for that read-out and setting: the figure for `CC(C(=O)Nc1ccccc1-c1ccccc1)N1CCN(C(=O)c2ccccc2)CC1` (configuration not stated) is 28.2 µM [falling, single point]; for `CCOC(=O)c1[nH]c(C)c(C(=O)OCC(=O)NC2CCS(=O)(=O)C2)c1C` (configuration not stated) it is 35.5 µM [falling, single point]; for `O=C(NCCCN1CCOCC1)c1ccc2c(c1)N(Cc1ccccc1F)C(=O)c1ccccc1S2=O` (configuration not stated) it is 28.2 µM [falling, partial curve, poor fit].
On the same count and under the same terms, the figure for `Nc1c(C(=O)Nc2ccccc2F)sc2nc(-c3ccco3)ccc12` is 15.8 µM [falling, single point]; for `O=[N+]([O-])c1ccc(O)c(/C=N/Nc2ccc(Cl)nn2)c1` it is 2 µM [falling, full curve]; for `CCCc1nnc(NC(=O)CCC(=O)N2CCN(c3ccccn3)CC2)s1` it is 3.16 µM [rising, partial curve, poor fit].
In the case of `O=C(NCc1cccc(Cl)c1)NC(=O)c1csc([N+](=O)[O-])c1`, the AC50 under setting [1] was 35.5 µM [rising, single point].
The same measure, in the same setting: the figure for `COc1ccc(S(=O)(=O)N2CCOCC2)cc1C(=O)Nc1cc(C)on1` is 14.6 µM [rising, partial curve]; for `Cc1c(Cl)cccc1NC(=S)NNS(=O)(=O)c1ccc([N+](=O)[O-])cc1` it is 0.891 µM [falling, partial curve, poor fit].
The same measure, in the same setting: the figure for `NNC(=O)CN1C(c2ccccc2Br)=Nc2ccc(Br)cc2C1c1ccccc1` (configuration not stated) is 7.31 µM [falling, partial curve].
Still for that read-out and setting: the figure for `CCOC(=O)CN1C(=O)S/C(=C/c2cc(C)n(-c3ccccn3)c2C)C1=O` is 16.4 µM [rising, single point].
On to `CCOC(=O)c1ccc(Nc2nc(-c3cccnc3)nc3ccccc23)cc1`, for which, under setting [1], the AC50 is 17.8 µM [falling, partial curve, poor fit].
Still for that read-out and setting: the figure for `COc1ccc(/C=N/NC(=O)C2c3ccccc3Oc3ccccc32)c(OC)c1` is 29.1 µM [rising, single point]; for `N#Cc1cn(-c2ccccc2)nc1-c1cc2ccccc2oc1=O` it is 0.116 µM [rising, full curve, poor fit].
Take `O=C(Nc1ccc(F)c([N+](=O)[O-])c1)c1ccc2c(c1)C(=O)OC2=O`: under setting [1], the AC50 is 10 µM [falling, partial curve].
For the compound `CCCCOc1ccc(CN2CCCCC2)cc1`, under setting [1], the AC50 is 29.1 µM [rising, single point].
Take `COc1ccc(C(=O)NCc2ccccc2C)cc1S(=O)(=O)NC1CCCC1`: the AC50 under setting [1] was 9.2 µM [falling, partial curve, poor fit].
As for `CCC1CCCCN1CCCNC(=O)C1CCC(=O)N1Cc1ccc(C)cc1` (configuration not stated), the AC50 under setting [1] is 0.178 µM [rising, full curve, poor fit].
On the same count and under the same terms, the figure for `Cn1c(Br)nc2c1c(=O)n(Cc1ccccc1)c(=O)n2C` is 17.8 µM [falling, single point].
For `CC(C)c1ccc(NC(=O)c2cc(S(=O)(=O)NCc3ccccc3Cl)ccc2F)cc1`, the AC50 is 11.2 µM [rising, partial curve] under setting [1] and 15.8 µM [falling, partial curve, poor fit] under setting [2].
As for `Cc1ccc(-c2cc(C(=O)N3CCN(C(=O)c4ccco4)CC3)no2)cc1`, the AC50 reads like this: under setting [1], 6.51 µM [rising, single point]; under setting [2], 6.51 µM [falling, single point].
Regarding `CN(C)CCCN1C(=O)c2cccc3c(Br)ccc(c23)C1=O`, the AC50 by setting is: under setting [1], 15.8 µM [falling, partial curve, poor fit]; under setting [2], 10 µM [rising, partial curve, poor fit].
In the case of `CC(C)(C)C(=O)NC(=S)Nc1sc2c(c1C(N)=O)CCC2`, under setting [1], the AC50 was 11.2 µM [falling, partial curve].
Take `O=C(O)Cc1csc(-c2cccc(F)c2)n1`: the AC50 runs as follows: under setting [1], 3.98 µM [rising, partial curve, poor fit]; under setting [2], 5.62 µM [rising, partial curve, poor fit].
Regarding `Cc1cccc(C)c1NC(=O)/C(=C/c1ccco1)c1ccccc1`, the AC50 under setting [1] is 6.51 µM [rising, single point].
On the same count and under the same terms, the figure for `CCN(CC)c1ccc(/C=C2\NC(=O)NC2=O)cc1` is 7.31 µM [rising, partial curve]; for `CCOc1ccc(NC(=O)CSC2=Nc3ccccc3C3=NC(CC(=O)NCc4ccco4)C(=O)N23)cc1` (configuration not stated) it is 1.26 µM [rising, full curve, poor fit]; for `CCC1CCC(NC(=O)Nc2cccc(OC)c2)CC1` (configuration not stated) it is 31.6 µM [rising, single point].
On the same count and under the same terms, the figure for `S=c1[nH]nc(-c2cc3c(s2)-c2ccccc2CC3)o1` is 16.4 µM [falling, single point].
The same measure, in the same setting: the figure for `O=C(/C=C/c1ccccc1Cl)NC(=S)Nc1ccccc1C(=O)NC1CCCCC1` is 0.112 µM [rising, full curve, poor fit]; for `Cc1cccc(-n2c(C)cc(C)c(C#N)c2=O)c1` it is 10 µM [rising, partial curve, poor fit].
Take `COc1ccc(-c2sc3ccccc3c2/C=C/c2ccc(N)cc2)cc1`: the AC50 under setting [1] was 2.59 µM [rising, partial curve, poor fit].
Same read-out and setting: the figure for `COc1ccc(C(c2c(O)ccc3ccccc23)N2CCOCC2)c(OC)c1` (configuration not stated) is 22.4 µM [falling, single point]; for `CCOc1ccc(-c2nnn(CC(=O)NCc3cccs3)n2)cc1` it is 11.2 µM [rising, partial curve, poor fit]; for `CN(CCCC(=O)NCc1ccccc1)S(=O)(=O)c1ccc([N+](=O)[O-])cc1` it is 0.1 µM [rising, full curve, poor fit].
